Assay: Phase solubility determination of cyclodextrin K1:1 binding constants (Higuchi & Connors)
Assay type: physicochemical
Conditions: 25° C., 10 mM disodium phosphate buffer pH 8.1

| Substance | K1:1 binding constant with valdecoxib [M⁻¹] |
| --- | --- |
| sulfobutyl ether6.4-β-cyclodextrin [SBE6.4-CD] | 2022 |
| hydroxypropyl-β-cyclodextrin [HP4.6-β-CD] | 1002 |
